Experiment [1] concerns the target GST-Atg8a-WT (Drosophila) (UniProt Q9W2S2). Nature of the experiment: pull-down; GST, GST-Atg8a-WT or GST-Atg8a-LDS pulled down and incubated with larval lysate expressing Sir2-myc; eluates blotted with anti-myc; only the target purified.
Experiment [2] deals with GST-Atg8a-LDS mutant (Y49A) (Drosophila) (UniProt Q9W2S2). The description is as above.
For experiment [3], the target named is T1, GST-Atg8a N-terminal half (amino acid residues 1–71) (Drosophila) (UniProt Q9W2S2).
T1 sequence: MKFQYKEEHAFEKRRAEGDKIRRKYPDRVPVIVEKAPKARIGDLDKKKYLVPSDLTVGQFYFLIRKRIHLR
Nature of the experiment: pull-down; GST-Atg8a proteins (1–10 μg) on glutathione-Sepharose beads, 10 μL of in vitro translated 35S-methionine-labeled protein, NETN buffer (50 mM Tris pH 8.0, 150 mM NaCl, 1 mM EDTA, 0.5% Nonidet P-40, 1 mM DTT), 2 h at 4°C, six washes, SDS-PAGE and autoradiography; only the target purified.

By UniProt entry, the sequences of proteins in these tests, tags left out.
UniProt O95166: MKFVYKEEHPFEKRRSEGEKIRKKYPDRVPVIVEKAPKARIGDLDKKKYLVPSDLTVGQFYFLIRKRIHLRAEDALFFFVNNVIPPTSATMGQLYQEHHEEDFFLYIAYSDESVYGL

Experiment [4] deals with GST-Atg8a residues 26–121 (Drosophila) (UniProt Q9W2S2). The experiment is described as above.
For experiment [5], the target named is GST-Atg8a-WT (Drosophila) (UniProt Q9W2S2). Described as above.
In experiment [6] the target is T2, GST-Atg8a residues 1–26 (Drosophila) (UniProt Q9W2S2).
T2 sequence: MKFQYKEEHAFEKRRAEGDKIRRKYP
Described as above.

Experiment [7] deals with GST-Atg8a-LDS mutant (Y49A) (Drosophila) (UniProt Q9W2S2). The experiment is described as above.
Experiment [8] deals with GABARAP (UniProt O95166). Nature of the experiment: pull-down; GST pull-down of mammalian proteins (Figures S1B and S1C); which partner carried GST is not told in the text shown.

Results are given in words; binding and its absence hold for the method and conditions named. In cells and extracts the contact can be indirect. Some results given as binding are weak or reduced against the parent protein; the word gives no strength. For some assays here: Where a sequence is shown, tags or fusion partners need not be part of it.

B1: Sir2-myc (enzyme, UniProt Q9VK34 1-823)
chain: MMENYEEIRLGHIRSKDLGNQVPDTTQFYPPTKFDFGAEILASTSTEAEAEAEATATTTEPATSELAGKANGEIKTKTLAAREEQEIGANLEHKTKNPTKSMGEDEDDEEEEEEDDEEEEEDDEEGITGTSNEDEDSSSNCSSSVEPDWKLRWLQREFYTGRVPRQVIASIMPHFATGLAGDTDDSVLWDYLAHLLNEPKRRNKLASVNTFDDVISLVKKSQKIIVLTGAGVSVSCGIPDFRSTNGIYARLAHDFPDLPDPQAMFDINYFKRDPRPFYKFAREIYPGEFQPSPCHRFIKMLETKGKLLRNYTQNIDTLERVAGIQRVIECHGSFSTASCTKCRFKCNADALRADIFAQRIPVCPQCQPNKEQSVDASVAVTEEELRQLVENGIMKPDIVFFGEGLPDEYHTVMATDKDVCDLLIVIGSSLKVRPVAHIPSSIPATVPQILINREQLHHLKFDVELLGDSDVIINQICHRLSDNDDCWRQLCCDESVLTESKELMPPEHSNHHLHHHLLHHRHCSSESERQSQLDTDTQSIKSNSSADYILGSAGTCSDSGFESSTFSCGKRSTAAEAAAIERIKTDILVELNETTALSCDRLGLEGPQTTVESYRHLSIDSSKDSGIEQCDNEATPSYVRPSNLVQETKTVAPSLTPIPQQRGKRQTAAERLQPGTFYSHTNNYSYVFPGAQVFWDNDYSDDDDEEEERSHNRHSDLFGNVGHNYKDDDEDACDLNAVPLSPLLPPSLEAHIVTDIVNGSNEPLPNSSPGQKRTACIIEQQPTPAIETEIPPLKKRRPSEENKQQTQIERSEESPPPGQLAAV
Regarding B1, the binding result in experiment [1] and in experiment [2] was “binds” in each case.

B2: In vitro translated YL-1 (35S-Myc-YL-1) (protein, UniProt Q9VKM6 1-351)
chain: MAASRSRRNNAGNKIAHLLNEEEEDDFYKTSYGGFQEDEEDKEYEQKDEEEDVVDSDFSIDENDEPVSDQEEAPEKKRKRGVVNTKAYKETKPAVKKETKATPALHKKRPGGGVTKRRPRPRFTVLDSGRKSIRTSTAIKTQATKIRLKELDDARKRKKKKVRVEDYMPTQEELLEEAKITEEENTKSLEKFQKMELEKKKSRPTKRTFSGPTIRYHSLTMPAMRKPTRGANPAVDSKDLAGKCERTFVTIENDFNDKVFQSLFRHKAPPKASNGICPITRLPARYFDPITQQPYYSIQAFKILREAYYMQLEQQGGGSEQPELAKWLEWRKLVKENRLKASAAASKNGDN
modifications: 35S-methionine label
Take B2: the binding entry was “binds” in experiment [3]; “no binding” in experiment [4]; “binds” in experiment [5]; “no binding” in experiment [6]; “binds” in experiment [7].

B3: KDM4A (protein, UniProt O75164 1-1064)
chain: MASESETLNPSARIMTFYPTMEEFRNFSRYIAYIESQGAHRAGLAKVVPPKEWKPRASYDDIDDLVIPAPIQQLVTGQSGLFTQYNIQKKAMTVREFRKIANSDKYCTPRYSEFEELERKYWKNLTFNPPIYGADVNGTLYEKHVDEWNIGRLRTILDLVEKESGITIEGVNTPYLYFGMWKTSFAWHTEDMDLYSINYLHFGEPKSWYSVPPEHGKRLERLAKGFFPGSAQSCEAFLRHKMTLISPLMLKKYGIPFDKVTQEAGEFMITFPYGYHAGFNHGFNCAESTNFATRRWIEYGKQAVLCSCRKDMVKISMDVFVRKFQPERYKLWKAGKDNTVIDHTLPTPEAAEFLKESELPPRAGNEEECPEEDMEGVEDGEEGDLKTSLAKHRIGTKRHRVCLEIPQEVSQSELFPKEDLSSEQYEMTECPAALAPVRPTHSSVRQVEDGLTFPDYSDSTEVKFEELKNVKLEEEDEEEEQAAAALDLSVNPASVGGRLVFSGSKKKSSSSLGSGSSRDSISSDSETSEPLSCRAQGQTGVLTVHSYAKGDGRVTVGEPCTRKKGSAARSFSERELAEVADEYMFSLEENKKSKGRRQPLSKLPRHHPLVLQECVSDDETSEQLTPEEEAEETEAWAKPLSQLWQNRPPNFEAEKEFNETMAQQAPHCAVCMIFQTYHQVEFGGFNQNCGNASDLAPQKQRTKPLIPEMCFTSTGCSTDINLSTPYLEEDGTSILVSCKKCSVRVHASCYGVPPAKASEDWMCSRCSANALEEDCCLCSLRGGALQRANDDRWVHVSCAVAILEARFVNIAERSPVDVSKIPLPRFKLKCIFCKKRRKRTAGCCVQCSHGRCPTAFHVSCAQAAGVMMQPDDWPFVVFITCFRHKIPNLERAKGALQSITAGQKVISKHKNGRFYQCEVVRLTTETFYEVNFDDGSFSDNLYPEDIVSQDCLQFGPPAEGEVVQVRWTDGQVYGAKFVASHPIQMYQVEFEDGSQLVVKRDDVYTLDEELPKRVKSRLSVASDMRFNEIFTEKEVKQEKKRQRVINSRYREDYIEPALYRAIME
Take B3: the binding result in experiment [8] is “binds”.

The values are drawn from publication PMC7262597.
